Some entries share one result that the patent states for a list of compounds.
Assay: Body weight loss in the CO-04-0307 PDX study
Format: in vivo, Balb/c nude mice
Conditions: CO-04-0307 study; Compound 1 30 mg/kg/dose BID (alone or with sotorasib 100 mg/kg QD); DietGel starting on treatment day 7

For `Cc1cnc(NC2CCOCC2)nc1-n1cnc(C(=O)N[C@H](CN)c2cc(F)cc(Cl)c2)c1` [Compound 1, (S)—N-(2-amino-1-(3-chloro-5-fluorophenyl)ethyl)-1-(5-methyl-2-((tetrahydro-2H-pyran-4-yl)amino)pyrimidin-4-yl)-1H-imidazole-4-carboxamide], the “BWL (at least two mice in treatment group; DietGel supplied)” value was greater than 10%.

Source: patent US20240285625A1, “ERK1/2 AND KRAS G12C INHIBITORS COMBINATION THERAPY” (Erasca, Inc., priority 2021, published 2024)
